This note sets out measurements from paper PMC7892883, “Transcription activation by a sliding clamp” (Nature Communications, 2021).

What all share (test): EMSA
What all share (conditions): heparin 0.1 mg/ml challenge, open complex; EMSA: 0.4 uM gp55, 0.2 uM RNAP, 0.2 uM DNA in 10 mM HEPES pH 7.5, 50 mM KCl, 5% glycerol, 0.1 mg/ml heparin; DNA 20 min at 37 C, heparin 1 min at 22 C; recombinant protein; label: none (gel stained)
For orientation: A gel shift assay detects complexes by their altered migration in electrophoresis.

Data set [1] deals with E. coli RNA polymerase core + gp55 R114X (HLH motif truncated).
Data set [2] deals with E. coli RNA polymerase core + gp55 wild type.
Data set [3] deals with E. coli RNA polymerase core + gp55 R114A.

The exact form of at least one protein or probe is not confirmed. For part of these data: A weaker result is weaker than the reference pair of the same experiment. For part of these data: At least one verdict was read from the data and is not stated in words by the source.

Regarding “CTAATAAAGAGCTCAGCACTATTACTGAGAGTATAAATACTCCTGATACTGAAGCAGCCGGACT (double strand) [T4 late promoter EMSA scaffold]”, the binding result in data set [1] is reported as “binds more weakly”; in data set [2] it was “binds”; in data set [3] it was “binds more weakly”.
